Data as given in PubChem BioAssay AID1259254 (NCATS, 2017).
The deposit covers about 59,000 reagents; this is a random part of them. Over the whole deposit, about 1,550 (2.6%) were called active. 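G2 share is only a proxy for re-replication; each gene was hit by three separate siRNAs, and active genes were retested.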 Unmarked entries are inactive. The numbers tell different reagents against one gene apart. Further read-outs or replicates are left out here. The record does not give: the amount of reagent.

Screen: 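Gene knock-downs that lead to re-replication, shown by excess G2 DNA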 (primary screen)
Cells: human HCT116 colorectal cancer cells
Reagents: single siRNA against human genes
Time to read-out: 3 days
Detection: 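Nuclei stained with Hoechst and imaged; cell-cycle phase assigned by DNA content; G2 share scaled per plate, non-targeting siRNA 0%, GMNN siRNA 100%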
Direction: G2 robust z-score and G2 cells, % of GMNN control: higher = more G2 cells, more excess DNA replication
Hit rule: 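Active siRNAs have a G2 robust z of 5 or more median absolute deviations over the median, which in these data means about 38% or higher of GMNN control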

What is on record for SCIN #1?
G2 robust z-score: 0.966; G2 cells, % of GMNN control: 9.77

What is on record for SCIN #2?
G2 robust z-score: -0.725; G2 cells, % of GMNN control: -2.13

With SCIN #3, what does the deposit list?
G2 robust z-score: -0.102; G2 cells, % of GMNN control: 2.25

With OR2S2 #1, what was measured?
G2 robust z-score: 1.68; G2 cells, % of GMNN control: 14.8

What is on record for OR2S2 #2?
G2 robust z-score: -0.766; G2 cells, % of GMNN control: -2.42

For OR2S2 #3, how do the results read?
G2 robust z-score: -1.02; G2 cells, % of GMNN control: -4.2

Limited to “G2 cells, % of GMNN control” (3 entries from above):
SCIN #3 = 2.25
OR2S2 #1 = 14.8
OR2S2 #2 = -2.42

Further records follow:
How did the screen score MIA3 #1?
G2 robust z-score: 0.366; G2 cells, % of GMNN control: 5.54

With MIA3 #2, what was measured?
G2 robust z-score: -0.101; G2 cells, % of GMNN control: 2.26

What is on record for MIA3 #3?
G2 robust z-score: 0.438; G2 cells, % of GMNN control: 6.05

With MRPL52 #1, what was measured?
G2 robust z-score: -0.0809; G2 cells, % of GMNN control: 2.4

With MRPL52 #2, what does the deposit list?
G2 robust z-score: 1.66; G2 cells, % of GMNN control: 14.7

How did the screen score MRPL52 #3?
G2 robust z-score: 0.862; G2 cells, % of GMNN control: 9.04

With ALX4 #1, what does the deposit list?
G2 robust z-score: -1.11; G2 cells, % of GMNN control: -4.84

With ALX4 #2, what was measured?
G2 robust z-score: 1.75; G2 cells, % of GMNN control: 15.3

With ALX4 #3, what was measured?
G2 robust z-score: -0.421; G2 cells, % of GMNN control: 0.00429

How did the screen score SEMA3C #1?
G2 robust z-score: 0.155; G2 cells, % of GMNN control: 4.06

With SEMA3C #2, what does the deposit list?
G2 robust z-score: 1.44; G2 cells, % of GMNN control: 13.1

What did the screen give for SEMA3C #3?
G2 robust z-score: -0.53; G2 cells, % of GMNN control: -0.763
